# These are yes or no findings as the source states them, for the method shown. Binding seen in cells or lysates may run through a third protein. Some entries that bind do so weakly or less than the wild type.
# The chains behind the UniProt entries cited, without tags or fusion partners. Where a name states a change or a piece, a line headed by the entry shows the natural chain unless it says otherwise. A line that says so, or that is headed by a name, gives the form on record, which may keep a tag or linker.
# UniProt Q12840: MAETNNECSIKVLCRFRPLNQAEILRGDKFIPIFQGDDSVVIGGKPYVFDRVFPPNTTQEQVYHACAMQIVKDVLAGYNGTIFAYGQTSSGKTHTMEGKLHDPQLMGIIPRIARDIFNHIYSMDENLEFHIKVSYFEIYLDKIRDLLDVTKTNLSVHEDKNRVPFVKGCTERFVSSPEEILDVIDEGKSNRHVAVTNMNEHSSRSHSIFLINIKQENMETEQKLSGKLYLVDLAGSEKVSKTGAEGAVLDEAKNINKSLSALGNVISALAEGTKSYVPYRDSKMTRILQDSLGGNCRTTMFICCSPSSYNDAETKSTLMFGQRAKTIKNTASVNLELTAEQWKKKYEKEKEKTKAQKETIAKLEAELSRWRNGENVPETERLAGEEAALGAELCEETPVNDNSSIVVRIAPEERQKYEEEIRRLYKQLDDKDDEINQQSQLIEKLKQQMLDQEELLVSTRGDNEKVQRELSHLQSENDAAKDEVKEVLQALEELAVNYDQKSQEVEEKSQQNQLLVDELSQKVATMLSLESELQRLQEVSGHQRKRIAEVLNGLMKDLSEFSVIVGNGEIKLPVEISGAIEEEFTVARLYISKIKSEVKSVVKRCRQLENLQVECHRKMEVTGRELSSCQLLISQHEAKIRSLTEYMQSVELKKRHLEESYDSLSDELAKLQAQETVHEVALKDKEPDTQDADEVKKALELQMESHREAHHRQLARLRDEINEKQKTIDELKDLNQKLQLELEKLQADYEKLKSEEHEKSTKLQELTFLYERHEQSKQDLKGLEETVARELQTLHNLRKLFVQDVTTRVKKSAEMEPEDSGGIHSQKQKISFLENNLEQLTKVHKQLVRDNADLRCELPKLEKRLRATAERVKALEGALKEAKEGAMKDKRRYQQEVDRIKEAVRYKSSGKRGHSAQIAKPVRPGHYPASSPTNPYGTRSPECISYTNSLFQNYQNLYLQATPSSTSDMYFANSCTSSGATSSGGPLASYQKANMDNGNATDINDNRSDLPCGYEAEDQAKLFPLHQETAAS
# N999Vfs*40 KIF5A (Q12840, form named): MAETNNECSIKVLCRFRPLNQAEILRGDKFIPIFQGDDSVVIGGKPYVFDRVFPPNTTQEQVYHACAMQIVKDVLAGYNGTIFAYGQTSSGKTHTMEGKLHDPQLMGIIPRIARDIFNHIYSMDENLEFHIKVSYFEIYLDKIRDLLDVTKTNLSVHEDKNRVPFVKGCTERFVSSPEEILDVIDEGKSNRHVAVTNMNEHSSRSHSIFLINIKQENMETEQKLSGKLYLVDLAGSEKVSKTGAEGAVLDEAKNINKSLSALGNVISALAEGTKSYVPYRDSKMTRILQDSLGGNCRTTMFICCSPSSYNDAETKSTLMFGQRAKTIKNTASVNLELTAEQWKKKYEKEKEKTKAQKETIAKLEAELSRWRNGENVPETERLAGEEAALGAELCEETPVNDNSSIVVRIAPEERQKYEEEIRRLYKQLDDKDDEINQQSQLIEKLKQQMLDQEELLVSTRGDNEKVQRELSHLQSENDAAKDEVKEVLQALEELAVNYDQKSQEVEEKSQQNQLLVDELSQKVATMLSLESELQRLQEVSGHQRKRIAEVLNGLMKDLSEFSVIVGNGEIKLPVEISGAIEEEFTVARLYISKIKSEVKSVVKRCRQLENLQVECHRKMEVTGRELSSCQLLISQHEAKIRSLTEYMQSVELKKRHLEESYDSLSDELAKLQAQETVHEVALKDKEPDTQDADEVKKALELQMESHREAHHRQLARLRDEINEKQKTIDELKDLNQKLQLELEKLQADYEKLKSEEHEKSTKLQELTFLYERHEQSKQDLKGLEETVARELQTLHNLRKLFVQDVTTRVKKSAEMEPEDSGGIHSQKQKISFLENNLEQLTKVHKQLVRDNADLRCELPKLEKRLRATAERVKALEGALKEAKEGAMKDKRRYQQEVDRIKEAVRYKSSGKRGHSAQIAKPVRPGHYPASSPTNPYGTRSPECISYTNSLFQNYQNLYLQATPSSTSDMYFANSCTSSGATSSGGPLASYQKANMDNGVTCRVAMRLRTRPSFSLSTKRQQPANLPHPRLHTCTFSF
# C975Vfs*73 KIF5A (Q12840, form named): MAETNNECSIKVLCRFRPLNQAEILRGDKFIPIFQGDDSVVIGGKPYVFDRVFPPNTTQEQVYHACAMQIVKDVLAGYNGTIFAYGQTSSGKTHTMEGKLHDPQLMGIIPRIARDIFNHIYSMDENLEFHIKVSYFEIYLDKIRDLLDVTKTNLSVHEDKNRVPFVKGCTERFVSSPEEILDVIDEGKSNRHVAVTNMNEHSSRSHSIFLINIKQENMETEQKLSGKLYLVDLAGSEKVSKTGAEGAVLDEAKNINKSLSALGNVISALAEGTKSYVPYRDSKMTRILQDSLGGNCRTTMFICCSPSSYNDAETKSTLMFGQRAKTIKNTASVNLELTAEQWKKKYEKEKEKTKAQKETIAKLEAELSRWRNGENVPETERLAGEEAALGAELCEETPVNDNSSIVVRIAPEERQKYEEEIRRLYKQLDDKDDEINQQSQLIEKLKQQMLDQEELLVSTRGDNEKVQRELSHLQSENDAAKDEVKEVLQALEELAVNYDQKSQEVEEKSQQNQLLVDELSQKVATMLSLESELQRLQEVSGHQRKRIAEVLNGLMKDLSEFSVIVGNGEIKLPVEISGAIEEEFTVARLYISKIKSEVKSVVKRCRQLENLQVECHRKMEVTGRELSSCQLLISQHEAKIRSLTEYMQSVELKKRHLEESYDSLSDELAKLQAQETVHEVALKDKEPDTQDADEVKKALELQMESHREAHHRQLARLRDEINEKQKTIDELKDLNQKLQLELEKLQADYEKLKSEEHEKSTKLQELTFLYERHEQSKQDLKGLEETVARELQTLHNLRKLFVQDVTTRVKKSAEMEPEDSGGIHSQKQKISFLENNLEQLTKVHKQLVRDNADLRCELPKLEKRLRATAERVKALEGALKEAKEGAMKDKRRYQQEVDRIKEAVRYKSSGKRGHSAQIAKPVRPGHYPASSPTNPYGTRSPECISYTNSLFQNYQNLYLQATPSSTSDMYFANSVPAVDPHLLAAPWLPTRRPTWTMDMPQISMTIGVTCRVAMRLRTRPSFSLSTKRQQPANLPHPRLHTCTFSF
# Columns and labels:
# Assay in all cases: co-IP; anti-FLAG antibody on Protein G magnetic beads incubated with 250 ug RIPA-soluble extract of transfected SH-SY5Y cells (harvested the day after transfection) for 1 h at 4 °C, washed in PBS-T, western blot
# N999Vfs*40 KIF5A (human) = N999Vfs*40 KIF5A (human) (UniProt Q12840)
# C975Vfs*73 KIF5A (human) = C975Vfs*73 KIF5A (human) (UniProt Q12840)
# R17Q KIF5A (human) = R17Q KIF5A (human) (UniProt Q12840)
binding (N999Vfs*40 KIF5A (human)),binding (C975Vfs*73 KIF5A (human)),binding (R17Q KIF5A (human)),Substance
binds,binds,,SQSTM1/p62 (from UniProt Q13501 1-440)
binds,,binds,wild-type (WT) KIF5A (from UniProt Q12840 1-1032)

# From PMC11437142
